# Measured values as given in article doi:10.1101/2024.05.23.595491 (bioRxiv, 2024).
# By UniProt entry, the sequences of proteins in these tests, tags left out.
# UniProt P11531: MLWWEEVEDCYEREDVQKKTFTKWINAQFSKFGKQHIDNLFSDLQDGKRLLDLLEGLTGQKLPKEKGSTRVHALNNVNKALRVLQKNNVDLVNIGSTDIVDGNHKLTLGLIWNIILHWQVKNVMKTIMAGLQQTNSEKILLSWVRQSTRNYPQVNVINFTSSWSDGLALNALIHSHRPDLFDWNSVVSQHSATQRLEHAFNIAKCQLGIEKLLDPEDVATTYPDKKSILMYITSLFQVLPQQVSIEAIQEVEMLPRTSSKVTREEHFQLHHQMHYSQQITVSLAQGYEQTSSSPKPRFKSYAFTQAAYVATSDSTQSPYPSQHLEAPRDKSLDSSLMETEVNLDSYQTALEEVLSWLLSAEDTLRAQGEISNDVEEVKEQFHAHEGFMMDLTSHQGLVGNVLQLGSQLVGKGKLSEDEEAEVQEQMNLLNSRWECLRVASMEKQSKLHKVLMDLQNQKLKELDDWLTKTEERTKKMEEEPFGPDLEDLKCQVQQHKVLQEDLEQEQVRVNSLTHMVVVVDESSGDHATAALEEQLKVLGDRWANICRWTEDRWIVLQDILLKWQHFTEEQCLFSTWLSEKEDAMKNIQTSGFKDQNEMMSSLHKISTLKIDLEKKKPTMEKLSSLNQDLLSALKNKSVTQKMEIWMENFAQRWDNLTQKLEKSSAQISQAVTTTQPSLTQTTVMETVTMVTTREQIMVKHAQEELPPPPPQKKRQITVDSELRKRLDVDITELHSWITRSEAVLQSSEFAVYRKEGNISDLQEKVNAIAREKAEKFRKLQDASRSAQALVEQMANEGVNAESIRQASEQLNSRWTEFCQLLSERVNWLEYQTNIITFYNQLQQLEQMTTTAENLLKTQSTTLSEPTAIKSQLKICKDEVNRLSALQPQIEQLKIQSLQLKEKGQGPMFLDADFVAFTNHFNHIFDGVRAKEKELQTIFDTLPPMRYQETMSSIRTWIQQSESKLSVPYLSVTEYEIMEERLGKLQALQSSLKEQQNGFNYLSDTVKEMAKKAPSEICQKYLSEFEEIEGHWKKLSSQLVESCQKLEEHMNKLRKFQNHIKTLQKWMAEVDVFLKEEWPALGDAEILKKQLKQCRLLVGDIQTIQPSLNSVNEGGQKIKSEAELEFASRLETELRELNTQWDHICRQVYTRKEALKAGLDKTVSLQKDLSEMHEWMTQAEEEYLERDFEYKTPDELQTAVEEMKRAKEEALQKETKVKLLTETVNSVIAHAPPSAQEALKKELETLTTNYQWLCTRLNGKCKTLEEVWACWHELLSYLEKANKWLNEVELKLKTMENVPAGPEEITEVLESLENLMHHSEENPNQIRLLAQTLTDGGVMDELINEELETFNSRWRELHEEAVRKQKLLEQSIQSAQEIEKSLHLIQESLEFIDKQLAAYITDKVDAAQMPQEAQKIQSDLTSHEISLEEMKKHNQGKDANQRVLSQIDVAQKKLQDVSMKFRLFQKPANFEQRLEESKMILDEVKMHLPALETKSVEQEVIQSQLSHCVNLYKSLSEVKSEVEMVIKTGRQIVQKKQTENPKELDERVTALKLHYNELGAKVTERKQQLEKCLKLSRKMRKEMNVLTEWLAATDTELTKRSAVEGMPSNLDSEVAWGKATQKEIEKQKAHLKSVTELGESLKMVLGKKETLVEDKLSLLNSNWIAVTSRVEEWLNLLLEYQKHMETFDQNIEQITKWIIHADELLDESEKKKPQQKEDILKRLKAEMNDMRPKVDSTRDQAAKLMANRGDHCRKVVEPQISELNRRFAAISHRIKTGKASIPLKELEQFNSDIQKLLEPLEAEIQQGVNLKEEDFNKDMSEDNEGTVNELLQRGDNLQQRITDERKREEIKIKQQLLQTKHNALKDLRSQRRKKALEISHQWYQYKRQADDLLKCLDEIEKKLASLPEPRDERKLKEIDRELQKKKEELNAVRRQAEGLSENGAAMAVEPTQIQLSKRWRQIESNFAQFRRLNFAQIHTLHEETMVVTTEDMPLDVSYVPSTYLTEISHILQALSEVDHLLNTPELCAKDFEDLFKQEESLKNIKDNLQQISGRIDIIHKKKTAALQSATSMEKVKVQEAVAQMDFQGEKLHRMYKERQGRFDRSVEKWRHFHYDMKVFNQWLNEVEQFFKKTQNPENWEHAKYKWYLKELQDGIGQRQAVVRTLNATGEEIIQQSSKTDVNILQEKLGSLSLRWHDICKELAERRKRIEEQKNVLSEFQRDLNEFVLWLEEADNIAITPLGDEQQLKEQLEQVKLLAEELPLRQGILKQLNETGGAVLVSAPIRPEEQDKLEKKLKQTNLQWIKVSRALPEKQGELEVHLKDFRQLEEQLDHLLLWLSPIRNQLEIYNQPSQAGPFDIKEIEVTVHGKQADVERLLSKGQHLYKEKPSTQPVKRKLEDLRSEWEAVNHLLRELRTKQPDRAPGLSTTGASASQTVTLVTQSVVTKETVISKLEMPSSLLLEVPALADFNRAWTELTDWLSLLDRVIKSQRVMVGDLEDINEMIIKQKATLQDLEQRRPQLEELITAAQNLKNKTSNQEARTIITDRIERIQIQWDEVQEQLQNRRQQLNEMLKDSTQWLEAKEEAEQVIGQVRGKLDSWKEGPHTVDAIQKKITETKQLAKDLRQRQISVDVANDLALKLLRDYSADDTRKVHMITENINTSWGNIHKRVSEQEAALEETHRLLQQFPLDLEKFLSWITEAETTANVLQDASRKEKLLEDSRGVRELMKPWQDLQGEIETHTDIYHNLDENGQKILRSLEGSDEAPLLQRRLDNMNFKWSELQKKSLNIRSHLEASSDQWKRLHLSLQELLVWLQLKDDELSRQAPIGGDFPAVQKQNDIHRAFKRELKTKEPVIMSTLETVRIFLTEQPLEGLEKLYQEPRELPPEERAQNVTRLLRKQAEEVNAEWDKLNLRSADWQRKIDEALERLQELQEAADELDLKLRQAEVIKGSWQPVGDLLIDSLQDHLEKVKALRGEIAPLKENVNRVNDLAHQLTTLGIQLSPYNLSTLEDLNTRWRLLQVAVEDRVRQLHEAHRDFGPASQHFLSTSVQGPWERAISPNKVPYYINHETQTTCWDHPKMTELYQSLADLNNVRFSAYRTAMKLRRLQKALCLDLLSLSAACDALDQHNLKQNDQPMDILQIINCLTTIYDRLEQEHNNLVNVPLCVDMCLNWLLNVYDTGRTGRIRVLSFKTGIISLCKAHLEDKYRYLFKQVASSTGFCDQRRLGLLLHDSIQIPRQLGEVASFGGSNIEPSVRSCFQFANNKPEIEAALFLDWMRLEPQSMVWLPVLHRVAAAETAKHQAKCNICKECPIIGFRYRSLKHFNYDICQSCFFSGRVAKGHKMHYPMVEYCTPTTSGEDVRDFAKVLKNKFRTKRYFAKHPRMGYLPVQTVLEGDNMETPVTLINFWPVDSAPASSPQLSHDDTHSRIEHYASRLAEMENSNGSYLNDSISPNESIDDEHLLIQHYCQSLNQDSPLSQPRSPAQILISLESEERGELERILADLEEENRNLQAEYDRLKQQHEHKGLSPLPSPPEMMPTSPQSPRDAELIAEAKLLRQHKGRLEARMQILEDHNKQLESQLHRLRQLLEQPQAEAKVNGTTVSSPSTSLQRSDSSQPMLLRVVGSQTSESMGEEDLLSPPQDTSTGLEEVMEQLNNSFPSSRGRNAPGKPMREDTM
# No constants are given. Whether binding was seen depends on the method and setting. In cells and extracts the contact can be indirect. These calls come from enrichment with a bait or labelling near it, and not all partners need be listed. Sequences can lack the tags named with a protein.
# Molecular target: T1, TAP-tag-GFP-SH3BP2 (mouse) (UniProt Q06649)
# T1 sequence: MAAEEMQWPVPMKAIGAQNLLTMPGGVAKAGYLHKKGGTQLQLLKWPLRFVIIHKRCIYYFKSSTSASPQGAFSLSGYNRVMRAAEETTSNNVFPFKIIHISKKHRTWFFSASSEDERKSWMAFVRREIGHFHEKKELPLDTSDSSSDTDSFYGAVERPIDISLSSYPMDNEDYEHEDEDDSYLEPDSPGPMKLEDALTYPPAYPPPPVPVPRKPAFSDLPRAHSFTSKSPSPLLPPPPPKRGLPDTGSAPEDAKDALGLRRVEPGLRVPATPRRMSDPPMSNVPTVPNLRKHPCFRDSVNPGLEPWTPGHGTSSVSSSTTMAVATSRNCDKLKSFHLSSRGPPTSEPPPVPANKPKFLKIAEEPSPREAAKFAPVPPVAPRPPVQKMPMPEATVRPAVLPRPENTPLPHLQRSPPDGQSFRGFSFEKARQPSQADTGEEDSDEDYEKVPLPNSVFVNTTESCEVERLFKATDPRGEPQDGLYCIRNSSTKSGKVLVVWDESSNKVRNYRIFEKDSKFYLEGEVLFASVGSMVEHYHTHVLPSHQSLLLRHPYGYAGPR
# Assay: affinity purification with mass spectrometry
row,binding,Substance
1,binds,dystrophin (from UniProt P11531 1-3678)
2,binds,utrophin (from UniProt E9Q6R7 1-3430)
3,binds,α syntrophin (mouse (endogenous in C2C12))
